The list shows a part of the results.
Compound: CC1Cc2ccccc2N1C(=O)C1CCCN(C1)C(=O)CCl (mixture of isomers) [TRIM25 ligand 11 (diastereomer mixture)]
Assay: probe-labelled cysteine peptide fold change vs DMSO (competition) (log2 fold change); higher = less target engagement (more negative = stronger competition)
Details: THP-1, incubation time: 4 h
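Also: competitive chemoproteomic profiling in live THP-1 cells with an iodoacetamide desthiobiotin (IA-DTB) probe, comparing probe-labelled peptide intensities in compound-treated cells against DMSO-treated controls.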

Sequences of proteins named here, by UniProt entry; tags and fusion partners are left off. A change or cut given only in a name is not applied to a line headed by its entry.
UniProt Q9GZZ9, whole entry: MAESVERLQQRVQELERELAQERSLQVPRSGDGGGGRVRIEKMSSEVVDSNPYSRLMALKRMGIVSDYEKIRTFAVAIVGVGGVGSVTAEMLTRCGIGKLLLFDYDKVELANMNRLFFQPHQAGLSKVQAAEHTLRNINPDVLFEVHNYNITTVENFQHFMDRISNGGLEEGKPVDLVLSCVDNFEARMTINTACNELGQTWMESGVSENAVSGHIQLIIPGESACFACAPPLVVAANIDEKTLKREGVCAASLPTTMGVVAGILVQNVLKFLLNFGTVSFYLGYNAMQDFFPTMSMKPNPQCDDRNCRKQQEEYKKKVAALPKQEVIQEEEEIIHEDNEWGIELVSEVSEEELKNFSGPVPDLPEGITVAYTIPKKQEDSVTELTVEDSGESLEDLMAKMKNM
UniProt O43396: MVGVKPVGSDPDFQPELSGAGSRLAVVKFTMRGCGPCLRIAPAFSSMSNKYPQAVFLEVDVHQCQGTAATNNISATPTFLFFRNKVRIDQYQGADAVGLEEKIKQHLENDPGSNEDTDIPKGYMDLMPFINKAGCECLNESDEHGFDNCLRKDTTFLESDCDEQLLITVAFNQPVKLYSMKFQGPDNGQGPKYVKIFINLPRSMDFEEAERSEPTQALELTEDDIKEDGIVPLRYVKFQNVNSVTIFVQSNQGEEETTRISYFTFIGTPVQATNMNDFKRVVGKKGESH
UniProt O14933: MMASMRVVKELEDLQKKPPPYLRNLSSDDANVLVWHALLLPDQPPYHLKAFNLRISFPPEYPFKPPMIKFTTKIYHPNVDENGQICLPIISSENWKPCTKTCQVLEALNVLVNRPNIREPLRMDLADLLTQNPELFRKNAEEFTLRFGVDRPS
UniProt Q05086: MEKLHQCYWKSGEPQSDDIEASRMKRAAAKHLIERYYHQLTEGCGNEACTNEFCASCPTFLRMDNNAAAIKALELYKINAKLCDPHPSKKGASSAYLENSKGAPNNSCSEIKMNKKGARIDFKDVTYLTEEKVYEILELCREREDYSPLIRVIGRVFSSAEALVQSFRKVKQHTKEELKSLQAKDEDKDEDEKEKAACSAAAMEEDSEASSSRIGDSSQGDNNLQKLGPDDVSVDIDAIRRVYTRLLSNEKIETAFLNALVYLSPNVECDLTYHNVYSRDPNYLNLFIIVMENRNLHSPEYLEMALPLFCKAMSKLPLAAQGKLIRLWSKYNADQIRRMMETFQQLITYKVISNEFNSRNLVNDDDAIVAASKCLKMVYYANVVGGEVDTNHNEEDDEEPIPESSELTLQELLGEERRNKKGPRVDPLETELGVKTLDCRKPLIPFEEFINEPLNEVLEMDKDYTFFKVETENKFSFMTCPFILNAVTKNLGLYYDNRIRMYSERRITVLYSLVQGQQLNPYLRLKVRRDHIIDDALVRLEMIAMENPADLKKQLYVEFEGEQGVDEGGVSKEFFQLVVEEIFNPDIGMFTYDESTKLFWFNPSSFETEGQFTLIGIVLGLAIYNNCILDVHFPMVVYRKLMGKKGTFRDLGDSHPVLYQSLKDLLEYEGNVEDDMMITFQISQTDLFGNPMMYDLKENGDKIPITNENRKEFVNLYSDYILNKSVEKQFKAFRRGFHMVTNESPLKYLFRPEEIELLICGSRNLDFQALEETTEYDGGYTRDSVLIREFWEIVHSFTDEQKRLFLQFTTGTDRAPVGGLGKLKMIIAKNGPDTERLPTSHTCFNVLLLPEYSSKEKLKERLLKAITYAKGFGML
UniProt P61081: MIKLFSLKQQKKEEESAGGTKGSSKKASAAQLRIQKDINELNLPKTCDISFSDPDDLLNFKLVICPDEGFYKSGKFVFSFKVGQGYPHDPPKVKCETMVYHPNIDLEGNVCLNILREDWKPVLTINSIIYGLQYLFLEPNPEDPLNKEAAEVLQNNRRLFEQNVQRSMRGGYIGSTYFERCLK
UniProt P51965: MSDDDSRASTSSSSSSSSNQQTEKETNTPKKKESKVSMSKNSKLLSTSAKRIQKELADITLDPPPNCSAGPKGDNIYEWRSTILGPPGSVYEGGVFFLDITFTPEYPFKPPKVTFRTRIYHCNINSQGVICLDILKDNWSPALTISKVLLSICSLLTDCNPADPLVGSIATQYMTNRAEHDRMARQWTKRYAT
UniProt Q9NPG3, whole entry, looked up: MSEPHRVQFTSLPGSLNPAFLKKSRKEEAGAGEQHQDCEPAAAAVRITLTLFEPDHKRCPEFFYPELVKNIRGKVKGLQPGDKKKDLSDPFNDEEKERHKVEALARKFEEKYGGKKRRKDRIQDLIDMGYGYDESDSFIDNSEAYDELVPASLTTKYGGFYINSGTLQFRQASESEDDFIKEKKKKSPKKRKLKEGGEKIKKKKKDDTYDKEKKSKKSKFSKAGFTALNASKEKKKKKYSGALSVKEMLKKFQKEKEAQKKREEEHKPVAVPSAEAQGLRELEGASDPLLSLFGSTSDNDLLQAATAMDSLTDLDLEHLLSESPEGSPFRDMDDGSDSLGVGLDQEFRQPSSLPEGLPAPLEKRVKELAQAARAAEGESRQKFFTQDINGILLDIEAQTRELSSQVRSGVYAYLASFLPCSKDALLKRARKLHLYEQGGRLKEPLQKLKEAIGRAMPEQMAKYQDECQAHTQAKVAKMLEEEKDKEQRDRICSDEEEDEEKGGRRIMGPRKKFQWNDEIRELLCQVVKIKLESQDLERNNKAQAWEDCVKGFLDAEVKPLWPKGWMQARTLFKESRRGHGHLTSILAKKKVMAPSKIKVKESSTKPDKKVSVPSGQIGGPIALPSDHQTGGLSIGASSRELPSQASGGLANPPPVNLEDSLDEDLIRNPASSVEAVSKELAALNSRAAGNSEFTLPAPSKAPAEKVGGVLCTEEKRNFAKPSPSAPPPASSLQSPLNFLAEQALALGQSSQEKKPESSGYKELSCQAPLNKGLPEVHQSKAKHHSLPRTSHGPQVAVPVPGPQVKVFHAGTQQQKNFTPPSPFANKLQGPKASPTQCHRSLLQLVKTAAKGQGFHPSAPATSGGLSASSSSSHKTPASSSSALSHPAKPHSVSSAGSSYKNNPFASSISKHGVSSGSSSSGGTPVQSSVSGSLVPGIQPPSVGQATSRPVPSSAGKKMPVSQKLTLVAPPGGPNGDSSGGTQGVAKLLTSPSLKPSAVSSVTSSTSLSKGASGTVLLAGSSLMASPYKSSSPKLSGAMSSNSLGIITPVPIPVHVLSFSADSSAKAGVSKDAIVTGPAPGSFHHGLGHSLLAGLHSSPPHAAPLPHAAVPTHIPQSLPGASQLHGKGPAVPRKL
UniProt P60604: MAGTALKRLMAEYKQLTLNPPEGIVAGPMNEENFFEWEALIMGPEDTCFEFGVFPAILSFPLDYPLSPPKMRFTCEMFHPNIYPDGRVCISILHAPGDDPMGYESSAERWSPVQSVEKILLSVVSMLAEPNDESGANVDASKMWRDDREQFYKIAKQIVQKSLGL
UniProt Q9NZ09: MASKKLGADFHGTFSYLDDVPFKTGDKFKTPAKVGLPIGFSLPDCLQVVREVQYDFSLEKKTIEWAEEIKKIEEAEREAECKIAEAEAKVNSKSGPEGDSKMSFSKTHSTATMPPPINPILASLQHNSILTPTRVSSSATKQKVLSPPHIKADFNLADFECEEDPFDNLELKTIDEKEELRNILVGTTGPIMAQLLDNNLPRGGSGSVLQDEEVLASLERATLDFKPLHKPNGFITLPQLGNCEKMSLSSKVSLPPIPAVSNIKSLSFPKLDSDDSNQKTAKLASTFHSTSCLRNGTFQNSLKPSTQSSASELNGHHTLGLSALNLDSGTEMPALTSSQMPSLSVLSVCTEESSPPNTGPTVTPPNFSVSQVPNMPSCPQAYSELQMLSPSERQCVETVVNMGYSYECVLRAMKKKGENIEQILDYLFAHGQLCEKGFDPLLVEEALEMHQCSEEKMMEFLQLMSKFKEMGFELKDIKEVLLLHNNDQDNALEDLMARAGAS

Row | Target | probe-labelled cysteine peptide fold change (10 µM) | probe-labelled cysteine peptide fold change (50 µM)
1 | UBA5_Q9GZZ9_181_ISNGGLEEGKPVDLVLSCVDNFEAR (UniProt Q9GZZ9) | -0.156 | -0.169
2 | TXNL1_O43396_135+137_AGCECLNESDEHGFDNCLR (UniProt O43396) | 0.0807 | -0.302
3 | UBE2L6_O14933_98_IYHPNVDENGQICLPIISSENWKPCTK (UniProt O14933) | -0.209 | -0.0943
4 | UBE3A_Q05086_83_LCDPHPSK (UniProt Q05086) | 0.0899 | -0.0221
5 | UBE2M_P61081_47_TCDISFSDPDDLLNFK (UniProt P61081) | -0.0194 | 0.00465
6 | UBE2E1_P51965_122+131_IYHCNINSQGVICLDILK (UniProt P51965) | 0.179 | 0.275
7 | UBN1_Q9NPG3_711_VGGVLCTEEK (UniProt Q9NPG3) | 0.0405 | -0.103
8 | UBE2E1_P51965_122_IYHCNINSQGVICLDILK (UniProt P51965) | 0.0904 | 0.136
9 | UBE2G2_P60604_75_FTCEMFHPNIYPDGR (UniProt P60604) | 0.0491 | -0.0468
10 | UBAP1_Q9NZ09_452_GFDPLLVEEALEMHQCSEEK (UniProt Q9NZ09) | -0.0976 | -0.166

A second format for part of the listing above:
Row	Target	probe-labelled cysteine peptide fold change (10 µM)	probe-labelled cysteine peptide fold change (50 µM)
1	UBA5_Q9GZZ9_181_ISNGGLEEGKPVDLVLSCVDNFEAR (UniProt Q9GZZ9)	-0.156	-0.169
9	UBE2G2_P60604_75_FTCEMFHPNIYPDGR (UniProt P60604)	0.0491	-0.0468

— the supplement of paper PMC12067093, “Discovery and optimisation of a covalent ligand for TRIM25 and its application to targeted protein ubiquitination” (Chemical Science, 2025)
